The exact form of at least one protein or probe is not confirmed. At least one verdict rests on a figure or table, not on a statement of the authors.
Target: EXO1 (D173A) (Homo sapiens) (UniProt Q9UQ84)
Assay: EMSA
Conditions: variant D173A taken from Methods; EMSA: 25 mM Tris-acetate pH 7.5, 1 mM DTT, 3 mM EDTA, 0.1 mg/ml BSA, 1 nM DNA, 15 min on ice, 0.6% agarose at 4 C; recombinant protein; residues 1-846; protein details: C-terminal 1xFLAG (MBP cleaved); label: 32P-dCTP at 3' end of X12-3 (terminal transferase)

By UniProt entry, the sequences of proteins in these tests, tags left out.
UniProt Q9UQ84, whole entry D173A: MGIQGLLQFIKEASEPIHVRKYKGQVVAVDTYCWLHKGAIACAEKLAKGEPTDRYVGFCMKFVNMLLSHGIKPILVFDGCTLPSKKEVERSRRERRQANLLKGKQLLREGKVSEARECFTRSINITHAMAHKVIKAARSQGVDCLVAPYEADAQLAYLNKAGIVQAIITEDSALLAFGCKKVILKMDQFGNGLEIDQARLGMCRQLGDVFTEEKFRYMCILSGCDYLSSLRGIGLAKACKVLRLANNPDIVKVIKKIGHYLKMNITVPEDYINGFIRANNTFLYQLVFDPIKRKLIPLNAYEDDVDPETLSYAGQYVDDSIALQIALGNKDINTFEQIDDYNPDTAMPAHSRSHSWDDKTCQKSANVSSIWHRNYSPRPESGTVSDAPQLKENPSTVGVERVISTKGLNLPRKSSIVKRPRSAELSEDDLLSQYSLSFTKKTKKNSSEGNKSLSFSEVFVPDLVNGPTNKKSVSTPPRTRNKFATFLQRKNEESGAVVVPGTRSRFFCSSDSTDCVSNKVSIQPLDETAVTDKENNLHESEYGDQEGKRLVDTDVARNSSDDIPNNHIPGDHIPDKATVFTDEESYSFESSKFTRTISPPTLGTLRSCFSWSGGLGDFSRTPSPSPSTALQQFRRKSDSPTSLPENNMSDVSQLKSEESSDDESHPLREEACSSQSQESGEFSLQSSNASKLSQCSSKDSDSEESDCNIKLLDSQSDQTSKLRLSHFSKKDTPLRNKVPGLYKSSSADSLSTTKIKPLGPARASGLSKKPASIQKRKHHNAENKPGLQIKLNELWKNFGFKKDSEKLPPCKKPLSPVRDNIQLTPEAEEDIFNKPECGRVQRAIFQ

GACGTCATAGACGATTACATTGCTAGGACATGCTGTCTAGAGACTATCGC (double strand) [50 bp dsDNA (X12-3/X12-4C)]
binding result: binds

— article PMC12049449
